Experimental data reported in patent US20230070752A1.
No constants are given. Whether binding was seen depends on the method and setting. Some entries that bind do so weakly or less than the wild type.

Sequences of proteins named here, by UniProt entry; tags and fusion partners are left off. A change or cut given only in a name is not applied to a line headed by its entry.
UniProt K9M1U5: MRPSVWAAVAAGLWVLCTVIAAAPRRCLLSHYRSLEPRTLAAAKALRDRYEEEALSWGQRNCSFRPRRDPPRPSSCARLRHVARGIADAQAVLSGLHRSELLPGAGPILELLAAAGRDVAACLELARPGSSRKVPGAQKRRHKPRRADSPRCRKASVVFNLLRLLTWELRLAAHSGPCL

Target: T1, IFNλR1 (UniProt Q8IU57)
T1 sequence (looked up): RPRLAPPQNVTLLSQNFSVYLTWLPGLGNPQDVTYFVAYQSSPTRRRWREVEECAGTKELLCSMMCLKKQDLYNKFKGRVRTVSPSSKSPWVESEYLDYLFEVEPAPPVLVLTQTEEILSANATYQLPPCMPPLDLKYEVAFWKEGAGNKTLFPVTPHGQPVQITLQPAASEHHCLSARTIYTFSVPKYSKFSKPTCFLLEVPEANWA
Assay: BLI (BLItz)

binding, binds:
M1 (L28N) IFNλ4 variant (from UniProt K9M1U5 22-179) (ligand)
M3 (P73N) IFNλ4 variant (from UniProt K9M1U5 22-179) (ligand)
eIFNλ4 (wild-type IFNλ4 produced in E. coli, R&D Systems 9165-IL) (from UniProt K9M1U5 23-179) (ligand)
